In PMC2579577:
Results are given in words; binding and its absence hold for the method and conditions named. Binding seen in cells or lysates may run through a third protein. A result given as binding can be weak or reduced; the word gives no strength. Sequences can lack the tags named with a protein.

Molecular target: T1, myc-tagged 14-3-3η (UniProt Q04917)
T1 sequence: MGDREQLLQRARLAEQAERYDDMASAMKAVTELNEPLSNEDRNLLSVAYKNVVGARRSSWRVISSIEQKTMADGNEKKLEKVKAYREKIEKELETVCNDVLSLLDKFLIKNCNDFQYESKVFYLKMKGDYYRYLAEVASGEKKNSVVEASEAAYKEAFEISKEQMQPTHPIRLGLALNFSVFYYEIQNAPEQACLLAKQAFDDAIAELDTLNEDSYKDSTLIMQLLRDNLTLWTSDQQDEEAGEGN
Assay: co-IP; COS cells transfected; lysates immunoprecipitated with 9E10 anti-myc antibody, 12 h at 4°C; Western blot with antibodies against Flag, Myc or Kif3A

binding: binds
Substance: endogenous Kif3A (COS cells) (African green monkey (endogenous in COS))
